Experimental data published in the supplement of paper PMC6143611.
Where a name gives a salt, the structure may show the parent alone. ± gives the uncertainty stated by the source. The list shows a part of the results. Baselines shift from plate to plate; read single values as rough.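 At 6 dpf, larvae had a heat-shock-induced fluorescent stripe placed in rod outer segments; shedding distance, from stripe to outer segment tip, was measured in confocal stacks, roughly three fish per compound. Controls received 0.2% DMSO vehicle; compounds were flagged for ≥20% change versus same-week control and p < 0.001 (Dunnett test, mixed-effects models).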

Key:
[1] = tested on: Danio rerio larva rod photoreceptor outer segment; test: rod outer segment growth distance Dg, difference from same-week DMSO control mean; higher = more outer segment growth; details: 20 µM; treatment time: 4 days (6-10 dpf)
[2] = tested on: Danio rerio larva rod photoreceptor outer segment; test: rod outer segment shedding distance Ds, difference from same-week DMSO control mean; higher = less outer segment shedding; details: 20 µM; treatment time: 4 days (6-10 dpf)

SMILES	rod outer segment growth distance Dg [1]	rod outer segment shedding distance Ds [2]
COc1ccc(CC(C)NCC(O)c2ccc(O)c(NC=O)c2)cc1 (stereo not given) [Formoterol Hemifumarate]	-0.12 ± 0.25 um	-0.34 ± 0.28 um
C[C@@H](O)[C@H]1C(=O)N2C(C(=O)O)=C(S[C@@H]3CN[C@H](CNS(N)(=O)=O)C3)[C@H](C)[C@H]12 [Doripenem Hydrate]	0.23 ± 0.24 um	-0.07 ± 0.23 um
CN1CCN(c2c(F)cc3c(=O)c(C(=O)O)cn4c3c2OCN4C)CC1 [Marbofloxacin]	-0.47 ± 0.17 um	-0.71 ± 0.18 um
CN(C)CC(=O)Nc1ccc2[nH]c(=O)c3ccccc3c2c1	-0.21 ± 0.19 um	-0.04 ± 0.12 um
O=C(/C=C/c1ccccc1)NC(NC(=S)Nc1cccc2cccnc12)C(Cl)(Cl)Cl (stereo not given) [Salubrinal]	-0.7 ± 0.22 um	0.27 ± 0.16 um
O=c1c(O)c(-c2ccc(O)cc2)oc2cc(O)cc(O)c12 [Kaempferol]	0.15 ± 0.3 um	0.09 ± 0.3 um
Cc1cn([C@H]2C[C@H](N=[N+]=[N-])[C@@H](CO)O2)c(=O)[nH]c1=O [Zidovudine]	0.62 ± 0.28 um	-0.73 ± 0.16 um
CC1(C)O[C@H]2CC(=O)OC[C@]23[C@H]2CC[C@@]4(C)[C@H](c5ccoc5)OC(=O)[C@H]5O[C@]54[C@]2(C)C(=O)C[C@@H]13 [Limonin]	0.93 ± 0.31 um	0.9 ± 0.31 um
Cc1ccc(N(CC2=NCCN2)c2cccc(O)c2)cc1 [Phentolamine Mesylate]	0.87 ± 0.29 um	-0.19 ± 0.31 um
O=c1c(-c2ccc(O)cc2)coc2c([C@@H]3O[C@H](CO)[C@@H](O)[C@H](O)[C@H]3O)c(O)ccc12 [Puerarin]	-1.53 ± 1.5 um	-4.75 ± 1.5 um
CC1(C)CC(=O)c2c(C(F)(F)F)nn(-c3ccc(C(N)=O)c(N[C@H]4CC[C@H](O)CC4)c3)c2C1	0.02 ± 0.16 um	0.03 ± 0.12 um
Cc1ccccc1N1C(=O)c2cc(S(N)(=O)=O)c(Cl)cc2NC1C (stereo not given) [Metolazone]	0.11 ± 0.2 um	-0.14 ± 0.14 um
CCc1c2c(nc3ccc(O)cc13)-c1cc3c(c(=O)n1C2)COC(=O)[C@]3(O)CC	0.87 ± 0.16 um	-0.04 ± 0.14 um
O=C(/C=C/c1cccc(S(=O)(=O)Nc2ccccc2)c1)NO [Belinostat (PXD101)]	-0.88 ± 0.12 um	0.38 ± 0.19 um
COc1cc2c(cc1OC)CC(=O)N(CCCN(C)C[C@H]1Cc3cc(OC)c(OC)cc31)CC2 [Ivabradine HCl]	-0.21 ± 0.58 um	-1.16 ± 0.57 um
CCN(CC)CC(=O)Nc1c(C)cccc1C [Lidocaine]	-0.28 ± 0.32 um	-0.04 ± 0.19 um
O=C(NC(Cc1cc(=O)[nH]c2ccccc12)C(=O)O)c1ccc(Cl)cc1 (stereo not given) [Rebamipide]	-0.23 ± 0.27 um	-0.33 ± 0.3 um
CC1=NN(c2ccccc2)C(=O)C1 [Edaravone]	0.47 ± 0.17 um	-0.53 ± 0.19 um
CCCCCOC(=O)Nc1nc(=O)n([C@@H]2O[C@H](C)[C@@H](O)[C@H]2O)cc1F [Capecitabine]	-0.66 ± 0.29 um	-0.06 ± 0.2 um
COc1ccc(-c2coc3cc(O)ccc3c2=O)cc1 [Formononetin]	0.02 ± 0.29 um	0.33 ± 0.26 um
O=C1CCc2cc(OCCCCc3nnnn3C3CCCCC3)ccc2N1 [Cilostazol]	-0.79 ± 0.15 um	-0.43 ± 0.2 um
CCOc1cc(CC(=O)N[C@@H](CC(C)C)c2ccccc2N2CCCCC2)ccc1C(=O)O [Repaglinide]	0.36 ± 0.16 um	-0.42 ± 0.2 um

SMILES	rod outer segment growth distance Dg [1]	rod outer segment shedding distance Ds [2]
COc1ccc2cccc(CCNC(C)=O)c2c1 [Agomelatine]	-1.22 ± 0.27 um	-0.5 ± 0.34 um
CCC(=O)NCC[C@@H]1CCc2ccc3c(c21)CCO3 [Ramelteon]	0.89 ± 0.25 um	0.48 ± 0.26 um
CCOC(=O)c1ccc(OC(=O)CCCCCNC(=N)N)cc1 [Gabexate Mesylate]	0.77 ± 0.2 um	-1.3 ± 0.22 um
CCN1CCC[C@H]1CNC(=O)c1cc(S(N)(=O)=O)ccc1OC [Levosulpiride]	0.51 ± 0.27 um	-0.42 ± 0.26 um
C[C@H](CCC(=O)O)[C@H]1CC[C@H]2[C@@H]3C[C@H](O)[C@@H]4C[C@H](O)CC[C@]4(C)[C@H]3CC[C@]12C [Hyodeoxycholic acid (HDCA)]	-0.29 ± 0.36 um	0.33 ± 0.33 um
COc1cc2c(cc1OC)[C@@H]1Cc3ccc(OC)c(OC)c3CN1CC2 [Rotundine]	-0.22 ± 0.22 um	-0.2 ± 0.24 um
O=c1[nH]c(=O)n([C@H]2C[C@H](O)[C@@H](CO)O2)cc1I [Idoxuridine]	1.16 ± 0.19 um	0.54 ± 0.26 um
Cn1c(=O)n(-c2ccc(C(C)(C)C#N)cc2)c2c3cc(-c4cnc5ccccc5c4)ccc3ncc21 [BEZ235 (NVP-BEZ235, Dactolisib)]	-0.28 ± 0.3 um	-1.34 ± 0.34 um
CC[C@H](/C=C/[C@@H](C)[C@H]1CC[C@H]2[C@@H]3CC=C4C[C@@H](O)CC[C@]4(C)[C@H]3CC[C@]12C)C(C)C [Stigmasterol]	0.38 ± 0.22 um	-0.14 ± 0.3 um
Cc1ccc(S(=O)(=O)Nc2nc3ccccc3nc2Nc2ccc3nsnc3c2)cc1	-0.97 ± 0.2 um	-0.68 ± 0.22 um
Cc1ccc(-n2nc(C(C)(C)C)cc2NC(=O)Nc2ccc(OCCN3CCOCC3)c3ccccc23)cc1 [BIRB 796 (Doramapimod)]	-2.53 ± 0.44 um	-1.09 ± 0.34 um
COc1cc(Nc2ncc(F)c(Nc3ccc4c(n3)N(COP(=O)(O)O)C(=O)C(C)(C)O4)n2)cc(OC)c1OC [Fostamatinib (R788)]	-1.89 ± 0.19 um	-0.19 ± 0.1 um
COc1cc([C@@H]2c3cc4c(cc3[C@@H](O[C@@H]3O[C@@H]5CO[C@@H](C)O[C@H]5[C@H](O)[C@H]3O)[C@H]3COC(=O)[C@H]23)OCO4)cc(OC)c1O [Etoposide]	-0.13 ± 0.19 um	-0.74 ± 0.21 um
Cc1cn([C@@H]2C[C@@H](O)[C@H](CO)O2)c(=O)[nH]c1=O [Telbivudine]	-1.18 ± 0.24 um	-0.37 ± 0.18 um
C[C@@H]1CCO[C@H]2Cn3cc(C(=O)NCc4ccc(F)cc4F)c(=O)c(O)c3C(=O)N12	-0.78 ± 0.23 um	-0.33 ± 0.12 um
Clc1cccc(Cl)c1NC1=NCCN1 [Clonidine HCl]	0.45 ± 0.27 um	-0.16 ± 0.23 um
CCc1c(O)cc(O)c(C(=O)c2ccc(OCCN3CCOCC3)c(OC)c2)c1CC(=O)N(CCOC)CCOC	0.57 ± 0.14 um	0.17 ± 0.14 um
CCC[C@H](NC(=O)[C@@H]1[C@H]2CCC[C@H]2CN1C(=O)[C@@H](NC(=O)[C@@H](NC(=O)c1cnccn1)C1CCCCC1)C(C)(C)C)C(=O)C(=O)NC1CC1 [Telaprevir (VX-950)]	-0.66 ± 0.14 um	-0.41 ± 0.16 um
O=C1CCC[C@@H]2[C@H]3CCC[N+]4([O-])CCC[C@@H](CN12)[C@@H]34 (stereo not given in full) [Oxymatrine]	-1.99 ± 1.4 um	-4.27 ± 1.5 um
CCn1cc(C(=O)O)c(=O)c2cc(F)c(N3CCNCC3)nc21 [Enoxacin]	-0.5 ± 0.21 um	-0.57 ± 0.16 um
NS(=O)(=O)c1cc2c(cc1Cl)N=CNS2(=O)=O [Chlorothiazide]	-0.36 ± 0.22 um	-0.35 ± 0.17 um
CCCCCCCN(CC)CCCC(O)c1ccc(NS(C)(=O)=O)cc1 (stereo not given) [Ibutilide Fumarate]	0.31 ± 0.23 um	0.32 ± 0.24 um

SMILES	rod outer segment growth distance Dg [1]	rod outer segment shedding distance Ds [2]
CO[C@H]1C[C@@H]2CC[C@@H](C)[C@@](O)(O2)C(=O)C(=O)N2CCCC[C@H]2C(=O)O[C@H]([C@H](C)C[C@@H]2CC[C@@H](OCCO)[C@H](OC)C2)CC(=O)[C@H](C)/C=C(\C)[C@@H](O)[C@@H](OC)C(=O)[C@H](C)C[C@H](C)/C=C/C=C/C=C/1C [Everolimus (RAD001)]	-3.9 ± 0.2 um	-1.16 ± 0.17 um
Oc1ccc(OCc2ccccc2)cc1 [Monobenzone]	-1.06 ± 0.84 um	-1.54 ± 0.6 um
O=C(Nc1ccccc1)c1cc([N+](=O)[O-])ccc1Cl	-0.95 ± 0.15 um	0.14 ± 0.13 um
CC[C@]1(O)C[C@H]2CN(CCc3c([nH]c4ccccc34)[C@@](C(=O)OC)(c3cc4c(cc3OC)N(C=O)[C@H]3[C@@](O)(C(=O)OC)[C@H](OC(C)=O)[C@]5(CC)C=CCN6CC[C@]43[C@@H]65)C2)C1 [Vincristine]	-0.55 ± 0.21 um	-0.45 ± 0.24 um
Nc1ncnc2c1ncn2[C@@H]1O[C@H](CO)[C@@H](O)[C@@H]1O [Vidarabine]	0.07 ± 0.2 um	-0.09 ± 0.13 um
O=C(/C=C/c1ccc(O)c(O)c1)O[C@@H]1C[C@](O)(C(=O)O)C[C@@H](O)[C@H]1O [Chlorogenic Acid]	0.34 ± 0.32 um	0.25 ± 0.33 um
Cc1ccc(NC(=O)c2cccc(C(C)(C)C#N)c2)cc1Nc1ccc2ncn(C)c(=O)c2c1	-0.95 ± 0.17 um	-0.65 ± 0.1 um
S=c1[nH]cnc2nc[nH]c12 [Mercaptopurine (6-MP)]	0.4 ± 0.15 um	-0.16 ± 0.15 um
Cc1cnc(C(=O)O)c[n+]1[O-] [Acipimox]	0.54 ± 0.24 um	-0.58 ± 0.15 um
O=C(O)c1cccc(-c2noc(-c3ccccc3F)n2)c1 [Ataluren (PTC124)]	0.3 ± 0.16 um	0.18 ± 0.13 um
CC1=CC(=O)NS(=O)(=O)O1 [Acesulfame Potassium]	1.04 ± 0.2 um	-0.04 ± 0.11 um
CCOC(=O)Nc1ccc(NCc2ccc(F)cc2)nc1N [Flupirtine maleate]	-0.04 ± 0.31 um	0.08 ± 0.21 um
CCCC(CCC)C(=O)O [Valproic acid sodium salt (Sodium valproate)]	-0.6 ± 0.3 um	-0.49 ± 0.32 um
CCOC(=O)[C@H](CCc1ccccc1)N[C@@H](C)C(=O)N1[C@H](C(=O)O)C[C@@H]2CCC[C@@H]21 [Ramipril]	0.27 ± 0.21 um	-0.26 ± 0.13 um
Cc1nc(NC(=O)N2CCC[C@H]2C(N)=O)sc1-c1csc(C(C)(C)C)n1	-0.21 ± 0.2 um	-0.68 ± 0.13 um
COc1ccc(F)c(F)c1C(=O)c1cnc(NC2CCN(S(C)(=O)=O)CC2)nc1N	-1.49 ± 0.26 um	0.16 ± 0.18 um
CCCC(=O)Nc1cccc(NC(=O)c2ccccc2Br)c1	-1.46 ± 0.23 um	-0.54 ± 0.19 um
COC(=O)N[C@H](C(=O)N1CCC[C@H]1c1ncc(-c2ccc(-c3ccc(-c4cnc([C@@H]5CCCN5C(=O)[C@@H](NC(=O)OC)C(C)C)[nH]4)cc3)cc2)[nH]1)C(C)C	-1.23 ± 0.17 um	-0.34 ± 0.17 um
CCc1ccc(CCOc2ccc(CC3SC(=O)NC3=O)cc2)nc1 (stereo not given) [Pioglitazone]	-2.52 ± 0.25 um	-0.87 ± 0.19 um
Cc1ccc(F)c(NC(=O)Nc2ccc(-c3cccc4[nH]nc(N)c34)cc2)c1 [Linifanib (ABT-869)]	-0.24 ± 0.28 um	-1.13 ± 0.28 um
NC12CC3CC(CC(C3)C1)C2 [Amantadine HCl]	-0.66 ± 0.29 um	-0.13 ± 0.29 um

Part of the list above in a different format.
SMILES,rod outer segment growth distance Dg [1],rod outer segment shedding distance Ds [2]
CCCC(CCC)C(=O)O [Valproic acid sodium salt (Sodium valproate)],-0.6 ± 0.3 um,-0.49 ± 0.32 um
CCOC(=O)[C@H](CCc1ccccc1)N[C@@H](C)C(=O)N1[C@H](C(=O)O)C[C@@H]2CCC[C@@H]21 [Ramipril],0.27 ± 0.21 um,-0.26 ± 0.13 um
Cc1nc(NC(=O)N2CCC[C@H]2C(N)=O)sc1-c1csc(C(C)(C)C)n1,-0.21 ± 0.2 um,-0.68 ± 0.13 um
